Test results from patent publication US7238775B2, “Receptor(SSTR4)-selective somatostatin analogs” (The Salk Institute for Biological Studies, priority 2002, dated 2007).
Read-outs that look alike come from different tables or passages of the source. Part of at least one peptide drawing is inferred or uncertain, most often the ends.

Protein sequences, listed by entry. Tags and fused reporters are not part of them. Lines headed by an entry give the natural chain unless they say otherwise; changes in a name come on top.
UniProt P35346: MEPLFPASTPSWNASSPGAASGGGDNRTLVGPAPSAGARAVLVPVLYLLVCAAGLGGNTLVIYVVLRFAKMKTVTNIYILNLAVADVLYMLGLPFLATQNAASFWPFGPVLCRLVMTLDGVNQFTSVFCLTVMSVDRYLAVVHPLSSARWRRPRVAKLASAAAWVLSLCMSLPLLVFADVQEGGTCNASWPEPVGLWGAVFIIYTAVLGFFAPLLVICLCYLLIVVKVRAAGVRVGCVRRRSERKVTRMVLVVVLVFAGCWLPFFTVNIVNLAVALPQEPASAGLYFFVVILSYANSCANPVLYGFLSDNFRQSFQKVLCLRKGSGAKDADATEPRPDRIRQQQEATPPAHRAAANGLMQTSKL
UniProt P30874: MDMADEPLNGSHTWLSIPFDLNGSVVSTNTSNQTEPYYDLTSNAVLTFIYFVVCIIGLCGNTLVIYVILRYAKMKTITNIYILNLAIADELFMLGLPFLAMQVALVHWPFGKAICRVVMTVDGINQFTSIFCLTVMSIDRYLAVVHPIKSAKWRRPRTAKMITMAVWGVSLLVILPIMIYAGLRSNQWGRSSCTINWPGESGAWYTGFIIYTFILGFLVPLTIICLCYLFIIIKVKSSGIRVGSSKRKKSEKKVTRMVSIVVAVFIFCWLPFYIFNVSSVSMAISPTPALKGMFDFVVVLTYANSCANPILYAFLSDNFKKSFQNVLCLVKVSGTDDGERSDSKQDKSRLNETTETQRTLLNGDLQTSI
UniProt P31391: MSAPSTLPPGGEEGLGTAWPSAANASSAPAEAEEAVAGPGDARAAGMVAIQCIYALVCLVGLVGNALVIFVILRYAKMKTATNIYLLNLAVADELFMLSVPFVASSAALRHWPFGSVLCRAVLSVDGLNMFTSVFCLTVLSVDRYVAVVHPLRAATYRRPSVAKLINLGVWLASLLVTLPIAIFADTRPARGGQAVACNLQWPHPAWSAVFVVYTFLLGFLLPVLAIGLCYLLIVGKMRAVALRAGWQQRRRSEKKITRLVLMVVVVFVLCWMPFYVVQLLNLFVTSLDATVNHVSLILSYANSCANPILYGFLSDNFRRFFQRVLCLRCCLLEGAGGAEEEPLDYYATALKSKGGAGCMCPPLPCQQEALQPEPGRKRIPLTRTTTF
UniProt P32745: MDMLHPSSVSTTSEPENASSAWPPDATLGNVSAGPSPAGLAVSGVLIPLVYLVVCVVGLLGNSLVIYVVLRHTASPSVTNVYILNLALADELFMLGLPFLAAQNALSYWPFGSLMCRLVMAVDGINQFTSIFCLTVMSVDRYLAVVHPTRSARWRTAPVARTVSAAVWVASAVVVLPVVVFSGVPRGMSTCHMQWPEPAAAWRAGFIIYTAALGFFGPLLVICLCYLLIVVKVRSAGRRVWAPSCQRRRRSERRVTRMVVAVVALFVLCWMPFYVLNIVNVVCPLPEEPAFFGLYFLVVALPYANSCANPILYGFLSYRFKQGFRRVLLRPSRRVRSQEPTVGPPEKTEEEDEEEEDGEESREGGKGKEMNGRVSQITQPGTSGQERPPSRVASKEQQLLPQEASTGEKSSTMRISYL
UniProt P30872: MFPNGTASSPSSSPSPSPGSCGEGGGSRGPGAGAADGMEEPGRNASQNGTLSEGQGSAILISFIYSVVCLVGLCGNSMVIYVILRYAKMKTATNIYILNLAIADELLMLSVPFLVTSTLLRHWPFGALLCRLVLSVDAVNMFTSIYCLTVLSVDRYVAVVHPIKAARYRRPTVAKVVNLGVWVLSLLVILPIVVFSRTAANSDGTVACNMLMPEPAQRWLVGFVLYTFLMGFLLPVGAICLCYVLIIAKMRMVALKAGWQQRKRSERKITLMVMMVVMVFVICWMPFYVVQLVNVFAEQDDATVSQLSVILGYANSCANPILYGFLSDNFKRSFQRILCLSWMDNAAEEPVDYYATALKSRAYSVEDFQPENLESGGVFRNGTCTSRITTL

Legend:
Experiment in all cases: Displacement of 125I-[Leu8,D-Trp22,Tyr25]SRIF-28 from cloned receptor, membrane pellet autoradiography
Format in all cases: binding
hSSTR5 = molecular target: T1, hSSTR5 (Homo sapiens, UniProt P35346)
T1 construct: expressed in transfected cells; host or cells: CHO-K1 cells and CCL39 cells
Description: (§1) In vitro Bioassay: The effects of the various somatostatin analogs are tested in vitro for their ability to bind to isolated cloned receptors expressed on CHO-K1 cells and CCL39 cells. CHO-K1 cells are grown in Ham's F-12 medium, and CCL39 cells are grown in Dulbecco's modified Eagle's medium/Ham's F-12(1:1) mix, supplemented with 10% fetal bovine serum, 100 U/ml penicillin and 100 μg/ml streptomycin, in humidified air containing 5% CO2 at 37° C.
(§2) Cells are washed twice with and scraped into ice-cold 0.05 M Tris-HCl (pH 7.4), collected by centrifugation, and homogenized using a rotor/stator/system in the same buffer. After centrifugation at 120 g for 5 min at 4° C., the supernatant is collected and centrifuged again at 48,000 g for 30 min at 4° C. The resulting pellet is resuspended in ice-cold Tris buffer, transferred into a microfuge tube, and centrifuged at 20,000 g for 15 min at 4° C. After withdrawal of the supernatant, the membrane pellet is stored at −80° C.
(§3) Receptor autoradiography is performed on 20 μm thick cryostat sections of the membrane pellets, mounted on microscope slides, and then stored at −20° C. […] Increasing concentrations of the unlabeled peptide are used ranging from 0.1-1000 nM. […] IC50 values are calculated after quantification of the data using a computer-assisted image processing system as known in this art.
(§4) The numbers in parentheses indicate the number of times the particular binding test was carried out.

hSSTR2 = molecular target: T2, hSSTR2 (Homo sapiens, UniProt P30874)
T2 construct: expressed in transfected cells; host or cells: CHO-K1 cells and CCL39 cells
Description: as §1, §2, §3, §4

hSSTR4 = molecular target: T3, hSSTR4 (Homo sapiens, UniProt P31391)
T3 construct: expressed in transfected cells; host or cells: CHO-K1 cells and CCL39 cells
Description: as §1, §2, §3, §4

hSSTR3 = molecular target: T4, hSSTR3 (Homo sapiens, UniProt P32745)
T4 construct: expressed in transfected cells; host or cells: CHO-K1 cells and CCL39 cells
Description: as §1, §2, §3, §4

hSSTR1 = molecular target: T5, hSSTR1 (Homo sapiens, UniProt P30872)
T5 construct: expressed in transfected cells; host or cells: CHO-K1 cells and CCL39 cells
Description: as §1, §2
Receptor autoradiography is performed on 20 μm thick cryostat sections of the membrane pellets, mounted on microscope slides, and then stored at −20° C. […] […] […] IC50 values are calculated after quantification of the data using a computer-assisted image processing system as known in this art.
as §4

## C[C@@H]1NC(=O)[C@H](Cc2ccccc2)NC(=O)[C@@H](NC(=O)[C@@H](N)Cc2ccc(O)c(I)c2)CSSC[C@@H](C(=O)O)NC(=O)[C@H](Cc2ccccc2)NC(=O)[C@H]([C@@H](C)O)NC(=O)[C@H](CCCCN)NC(=O)[C@H](Cc2c[nH]c3ccccc23)NC1=O [Peptide No. 13A]
hSSTR5
  binding to SSTR5 (in words): No significant binding
hSSTR5; listed as I-Tyr^2 analog
  binding to SSTR5 (in words): did not significantly bind
hSSTR2
  binding to SSTR2 (in words): No significant binding
hSSTR2; listed as I-Tyr^2 analog
  binding to SSTR2 (in words): did not significantly bind
hSSTR4
  binding to SSTR4 (in words): still effectively binds to SSTR4
hSSTR4; listed as I-Tyr^2 analog
  binding to SSTR4 (in words): continues to bind saturably
hSSTR3
  binding to SSTR3 (in words): No significant binding
hSSTR3; listed as I-Tyr^2 analog
  binding to SSTR3 (in words): did not significantly bind
hSSTR1
  binding to SSTR1 (in words): No significant binding
hSSTR1; listed as I-Tyr^2 analog
  binding to SSTR1 (in words): did not significantly bind
